This note sets out measurements from PMC6925144, “A prospective compound screening contest identified broader inhibitors for Sirtuin 1” (Scientific Reports, 2019).

Chains of the proteins cited; added tags and fusions are not shown. Residues count along the entry.
UniProt Q96EB6, 2-747 limits assumed: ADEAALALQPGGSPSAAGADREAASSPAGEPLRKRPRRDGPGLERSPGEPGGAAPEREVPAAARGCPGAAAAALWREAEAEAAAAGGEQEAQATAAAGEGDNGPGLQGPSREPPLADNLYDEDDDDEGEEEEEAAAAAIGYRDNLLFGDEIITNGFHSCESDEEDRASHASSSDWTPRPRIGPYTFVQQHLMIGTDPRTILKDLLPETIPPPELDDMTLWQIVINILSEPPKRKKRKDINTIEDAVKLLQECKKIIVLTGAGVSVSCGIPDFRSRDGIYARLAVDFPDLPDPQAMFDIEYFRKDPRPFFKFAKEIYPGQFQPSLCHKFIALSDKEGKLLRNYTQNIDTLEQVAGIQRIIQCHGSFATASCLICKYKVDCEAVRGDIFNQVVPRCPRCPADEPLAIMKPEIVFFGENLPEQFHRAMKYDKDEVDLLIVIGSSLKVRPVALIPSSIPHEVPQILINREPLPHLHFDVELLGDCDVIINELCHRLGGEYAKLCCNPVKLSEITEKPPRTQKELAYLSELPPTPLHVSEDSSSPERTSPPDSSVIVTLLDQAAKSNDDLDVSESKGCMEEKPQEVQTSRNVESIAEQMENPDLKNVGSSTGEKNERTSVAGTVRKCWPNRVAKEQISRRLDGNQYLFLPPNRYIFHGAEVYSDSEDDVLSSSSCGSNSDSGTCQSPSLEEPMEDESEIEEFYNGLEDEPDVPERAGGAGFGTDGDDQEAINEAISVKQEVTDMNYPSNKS

Molecules are shown by their SMILES. Whole data set: some 3,200 compounds, median “TSA(with NAD+) / Primary screening (TSA) / delta Tm (K)” near -0.04, cut for the highest 2% near 0.37. The list shows a part of the results.

For this experiment, the target named is NAD-dependent deacetylase Sirtuin 1 (human, UniProt Q96EB6). The experiment in a line: primary screen, delta tm. As to conditions: 10 µM. Details: single well (n = 1, as 'the same TSA'). As for the experimental part: A total of 3,192 compounds extracted from the proposed lists were first screened by thermal shift assay (TSA), which determined a melting temperature shift (ΔTm) of Sirtuin 1 upon the addition of a test compound at a concentration of 10 µM (n = 1) with primary hit criteria of ΔTm > 0.45 K or ΔTm < −1.5 K. Primary hits (48 compounds) were retested in the same assay at three concentrations (5, 10, 20 µM, n = 4) for hit confirmation and for dose-dependency check. Secondary hits (41 compounds) were checked their selectivity for Sirtuin 1 based on counterscreening on unrelated protein targets (bovine carbonic anhydrase (CA) and recombinant SH2 domain of hABL1 kinase (ABL1)) at three different concentrations (5, 10, 20 µM, n = 4), which yielded 38 hit compounds, hereafter referred to as TSA hits. The TSA screening above was conducted in the absence of NAD+. As noted, the structure of Sirtuin 1 is different in the presence of NAD+ and substrate. The chemical profile of TSA hits found from the different conditions could be different. […] As a result, 39 TSA hits were found.
Turning to `O=C(CC12CC3CC(CC(C3)C1)C2)NCC(=O)Nc1ccc(Sc2nc3ccccc3[nH]2)cc1`, the “TSA(with NAD+) / Primary screening (TSA) / delta Tm (K)” value was determined as 0.23 K. On to `Cc1ccc(C(=O)Nc2cccc(/C=c3/s/c(=C(\C#N)C(=O)NCc4ccco4)n(-c4c(C)cccc4C)c3=O)c2)cc1`, for which the “TSA(with NAD+) / Primary screening (TSA) / delta Tm (K)” value is -0.01 K.

Regarding `CN(Cc1cccc2ccccc12)c1cc(=O)n2ccccc2n1`, the “TSA(with NAD+) / Primary screening (TSA) / delta Tm (K)” value was -0.19 K. On to `O=C(NCCc1coc(-c2ccccc2)n1)c1cc(-c2ccco2)on1`, for which the “TSA(with NAD+) / Primary screening (TSA) / delta Tm (K)” value came to 0.16 K. Consider `Cc1ccc(Nc2nnc(SCC(=O)NC(=O)NCc3ccco3)s2)cc1`, for which the “TSA(with NAD+) / Primary screening (TSA) / delta Tm (K)” value was -0.03 K.

As to `O=c1c2ccncc2ncn1CC(O)c1cccc(Cl)c1` (stereo not drawn), the “TSA(with NAD+) / Primary screening (TSA) / delta Tm (K)” value is recorded as -0.03 K.

As for `Cc1n[nH]c(=O)c2c(NC(=O)CN3CCC(O)CC3)oc(C)c12`, the “TSA(with NAD+) / Primary screening (TSA) / delta Tm (K)” value is 0.06 K. For `Nc1nc(-c2c(-c3ccccc3)[nH]c3ccccc23)cs1`, the “TSA(with NAD+) / Primary screening (TSA) / delta Tm (K)” value came to 0.16 K. For the molecule `CC(C)(C)N(Cc1ccccc1)C(=O)Cn1nnc2ccccc2c1=O`, the “TSA(with NAD+) / Primary screening (TSA) / delta Tm (K)” value is on record as 0.01 K. In the case of `CCc1ccccc1NC(=O)CNC(=O)CCc1nc2ccccc2[nH]1`, the “TSA(with NAD+) / Primary screening (TSA) / delta Tm (K)” value is on record as -0.06 K. Turning to `CCC(C)c1ccccc1NC(=O)Cc1coc2ccc3ccccc3c12` (stereo not drawn), the “TSA(with NAD+) / Primary screening (TSA) / delta Tm (K)” value is -0.09 K.

For `O=C(Nc1ccccc1Oc1ccccc1)c1ccccc1[N+](=O)[O-]`, the “TSA(with NAD+) / Primary screening (TSA) / delta Tm (K)” value is reported as -0.15 K.

As for `COc1ccc2cccc(C=C3C(=O)NC(=S)NC3=O)c2c1`, the “TSA(with NAD+) / Primary screening (TSA) / delta Tm (K)” value is -0.26 K. `Cc1c(NC=C2C(=O)NC(=S)NC2=O)c(=O)n(-c2ccccc2)n1C`: the “TSA(with NAD+) / Primary screening (TSA) / delta Tm (K)” value turned out to be 0.06 K. Take `CC(CC1CCCCCN1C(=O)OC(C)(C)C)NCc1cccc(C(N)=O)c1` (stereo not drawn): the “TSA(with NAD+) / Primary screening (TSA) / delta Tm (K)” value came out at 0.01 K. Next, `Cn1c(-c2cccnc2)[n+](C)c2ccccc21`: -0.05 K. On to `NC(=O)c1ccc(CN2CCN(CCO)CC2)cc1`, for which the “TSA(with NAD+) / Primary screening (TSA) / delta Tm (K)” value is -0.18 K.

`CN(Cc1ccc(N(C)C)cc1)C(=O)c1cnc2ccccn2c1=O`: the “TSA(with NAD+) / Primary screening (TSA) / delta Tm (K)” value is listed as -0.09 K. For `CC(c1ccccc1F)N(C)C(=O)CN(C)c1ncnc2nc[nH]c12` (stereo not drawn), the “TSA(with NAD+) / Primary screening (TSA) / delta Tm (K)” value is given as -0.03 K.

With `CCCOc1cccc(C2C(C(=O)c3ccccc3)=C(O)C(=O)N2CCCN2CCOCC2)c1` (stereo not drawn), the “TSA(with NAD+) / Primary screening (TSA) / delta Tm (K)” value is given as -0.05 K. Next, `CCCc1cc(N2CCC(Cc3ccccc3)CC2)n2ncnc2n1`: -0.01 K. As to `COc1ccc(C(=O)C2=C(O)C(=O)N(CCN3CCOCC3)C2c2ccccn2)cc1OC` (stereo not drawn), the “TSA(with NAD+) / Primary screening (TSA) / delta Tm (K)” value is recorded as -0.03 K. For the molecule `COc1cccc(NC(=O)CN(C)C(=O)c2ccccc2SCC(=O)NC23CC4CC(CC(C4)C2)C3)c1`, the “TSA(with NAD+) / Primary screening (TSA) / delta Tm (K)” value is reported as -0.09 K. For the molecule `Nc1ncnc2c1cnn2-c1ccncc1`, the “TSA(with NAD+) / Primary screening (TSA) / delta Tm (K)” value is listed as -0.13 K.

`Cc1cc(C)c(NC(=O)CN(C)C(=O)CNC(=O)C(C)(C)C)c(C)c1`: the “TSA(with NAD+) / Primary screening (TSA) / delta Tm (K)” value is reported as 0.09 K. With `Cn1ncc2c(N3CCN(CC(=O)Nc4ccc(Cl)cn4)CC3)ncnc21`, the “TSA(with NAD+) / Primary screening (TSA) / delta Tm (K)” value is listed as -0.03 K. Take `C=CCN(CCO)C(=O)Nc1cccc(I)c1`: the “TSA(with NAD+) / Primary screening (TSA) / delta Tm (K)” value is listed as -0.11 K. `CCOc1ccc(-n2c(C)cc(C(=O)COc3ccc(C(N)=O)cc3)c2C)cc1`: the “TSA(with NAD+) / Primary screening (TSA) / delta Tm (K)” value is recorded as -0.02 K.

Take `Cc1nc(C)c(CC(=O)Oc2ccccc2)c(=O)[nH]1`: the “TSA(with NAD+) / Primary screening (TSA) / delta Tm (K)” value is -0.02 K. With `O=C(O)c1ccc2[nH]c(CO)nc2c1`, the “TSA(with NAD+) / Primary screening (TSA) / delta Tm (K)” value is recorded as -0.16 K. Regarding `CC(C)=CCN`, the “TSA(with NAD+) / Primary screening (TSA) / delta Tm (K)” value is recorded as -0.03 K.

Regarding `COc1cc(OC)cc(C(=O)NCC(=O)OCC(=O)NCC(=O)Nc2ccc(F)c(F)c2F)c1`, the “TSA(with NAD+) / Primary screening (TSA) / delta Tm (K)” value was -0.24 K. Consider `COc1cc(C(=O)Nc2cccc(S(=O)(=O)NCc3ccco3)c2)ccc1OCc1ccccc1`, for which the “TSA(with NAD+) / Primary screening (TSA) / delta Tm (K)” value is recorded as 0.08 K. Regarding `Cc1nc(S)sc1CC(=O)Nc1ccc(F)cc1`, the “TSA(with NAD+) / Primary screening (TSA) / delta Tm (K)” value is -0.04 K. With `CC(=O)N1CCCc2cc(S(=O)(=O)N3c4ccccc4CCC3C)ccc21` (stereo not drawn), the “TSA(with NAD+) / Primary screening (TSA) / delta Tm (K)” value is -0.05 K.

Regarding `O=C(O)c1nn(Cc2ccccc2)c(=O)c2ccccc12`, the “TSA(with NAD+) / Primary screening (TSA) / delta Tm (K)” value is recorded as -0.11 K. The figure for `Oc1ccccc1/C=N/c1ccccc1O` is -0.03 K; for `COc1ccc(N(C)S(=O)(=O)c2cccc(C(=O)Nc3ncc(C(N)=O)s3)c2)cc1` it is -0.03 K; for `c1ccc(CN2CCCC2)c(CNc2ncnc3sccc23)c1` it is -0.03 K. Next, `CCCOc1ccc(C(=O)C2=C(O)C(=O)N(CCCN3CCOCC3)C2c2cccnc2)cc1` (stereo not drawn): -0.16 K; `CCSCCOC(=O)c1ccc2[nH]c(C(F)F)nc2c1`: -0.03 K. Turning to `CCCC(=O)CN`, the “TSA(with NAD+) / Primary screening (TSA) / delta Tm (K)” value was -0.23 K. Regarding `CC(C)NCCOCCN`, the “TSA(with NAD+) / Primary screening (TSA) / delta Tm (K)” value was -0.11 K.

`O=C1CCCN1c1cccc(NS(=O)(=O)c2ccc3nc[nH]c(=O)c3c2)c1`: the “TSA(with NAD+) / Primary screening (TSA) / delta Tm (K)” value is -0.14 K.

Turning to `COc1cc(C(=O)N(C)Cc2ccc(C(N)=O)cc2)cc(OC)c1OC`, the “TSA(with NAD+) / Primary screening (TSA) / delta Tm (K)” value is recorded as -0.11 K. For `COC(=O)CCC(NC(=O)OC(C)(C)C)C(=O)Nc1cccc(C(N)=O)c1C` (stereo not drawn), the “TSA(with NAD+) / Primary screening (TSA) / delta Tm (K)” value is recorded as -0.05 K. Turning to `CC(CN)CN(C)C` (stereo not drawn), the “TSA(with NAD+) / Primary screening (TSA) / delta Tm (K)” value is on record as -0.13 K.

Regarding `CCc1ccc(NC(c2cccnc2)c2ncc[nH]2)cc1CC` (stereo not drawn), the “TSA(with NAD+) / Primary screening (TSA) / delta Tm (K)” value is listed as -0.11 K.
